Laboratory results: PubChem BioAssay AID1259254 (NCATS, 2017)

- Aim: 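Finding genes that stop cells copying their DNA twice in one cycle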 (primary screen)
- System: human HCT116 colorectal cancer cells
- Reagent: single siRNA against human genes
- Timing: 3 days
- Measurement: 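Imaged Hoechst DNA stain sorts each cell into a cycle phase by DNA amount; per plate, G2 fraction set to 0% for non-targeting and 100% for GMNN siRNA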
- Scale: G2 robust z-score and G2 cells, % of GMNN control: higher = more G2 cells, more excess DNA replication; raw share of cells in G2: higher = larger share of cells with G2 DNA content
- Hit rule: 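Active siRNAs have a G2 robust z of 5 or more median absolute deviations over the median, which in these data means about 38% or higher of GMNN control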
Shown is an unselected part of about 59,000 reagents. About 1,550 of them (2.6%) count as active. 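G2 share is only a proxy for re-replication; each gene was hit by three separate siRNAs, and active genes were retested.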 Raw values are not corrected between plates. Reagents against one gene are numbered here. Not stated in the record: the amount of reagent.

gene | siRNA no. | G2 robust z-score | G2 cells, % of GMNN control | raw share of cells in G2 (%) | Outcome
H4C2 | 1 | 0.213 | 4.46 | 7.11 | inactive
H4C2 | 2 | -0.339 | 0.583 | 4.13 | inactive
H4C2 | 3 | -0.35 | 0.508 | 3.53 | inactive
CAV2 | 1 | 1.8 | 15.6 | 9.81 | inactive
CAV2 | 2 | -1.87 | -10.2 | 1.26 | inactive
CAV2 | 3 | 0.398 | 5.77 | 7.13 | inactive
ZC3HC1 | 1 | -0.875 | -3.19 | 4.6 | inactive
ZC3HC1 | 2 | -1.01 | -4.12 | 3.69 | inactive
ZC3HC1 | 3 | 0.311 | 5.16 | 5.33 | inactive
SLC38A2 | 1 | 0.618 | 7.32 | 6.95 | inactive
SLC38A2 | 2 | -0.729 | -2.16 | 2.97 | inactive
SLC38A2 | 3 | -0.936 | -3.62 | 4.31 | inactive
DMP1 | 1 | 2.13 | 18 | 13.7 | inactive
DMP1 | 2 | 0.414 | 5.88 | 6.24 | inactive
DMP1 | 3 | -0.903 | -3.38 | 2.2 | inactive
PIAS2 | 1 | -0.736 | -2.21 | 3.53 | inactive
PIAS2 | 2 | 4.87 | 37.2 | 18.3 | inactive
PIAS2 | 3 | 1.87 | 16.1 | 10.5 | inactive
LINC01300 | 1 | 1.26 | 11.8 | 8.37 | inactive
LINC01300 | 2 | -0.647 | -1.59 | 2.91 | inactive
LINC01300 | 3 | 2.73 | 22.2 | 12.4 | inactive
DDA1 | 1 | -0.793 | -2.61 | 3.44 | inactive
DDA1 | 2 | -0.174 | 1.74 | 5.39 | inactive
DDA1 | 3 | 0.695 | 7.86 | 4.77 | inactive
ESCO2 | 1 | -0.592 | -1.19 | 5.39 | inactive
ESCO2 | 2 | -0.18 | 1.7 | 5.32 | inactive
ESCO2 | 3 | -0.579 | -1.11 | 4.24 | inactive
RPLP1P5 | 1 | 2.34 | 19.5 | 9.28 | inactive
RPLP1P5 | 2 | -0.0805 | 2.4 | 3.45 | inactive
RPLP1P5 | 3 | -0.475 | -0.376 | 4.03 | inactive
CLK2 | 1 | 1.39 | 12.8 | 9.82 | inactive
CLK2 | 2 | -1.07 | -4.54 | 3.88 | inactive
CLK2 | 3 | -0.184 | 1.68 | 4.62 | inactive
ALKBH4 | 1 | -0.161 | 1.83 | 4.26 | inactive
ALKBH4 | 2 | 0.845 | 8.91 | 8.03 | inactive
ALKBH4 | 3 | -0.943 | -3.67 | 1.98 | inactive
TAPBP | 1 | 0.43 | 6 | 7.04 | inactive
TAPBP | 2 | 4.31 | 33.3 | 17.4 | inactive
TAPBP | 3 | -0.584 | -1.14 | 3.76 | inactive
CBLN2 | 1 | 0.0411 | 3.26 | 4.92 | inactive
CBLN2 | 2 | -0.242 | 1.26 | 3.3 | inactive
CBLN2 | 3 | -0.215 | 1.46 | 3.58 | inactive
TCAF2 | 1 | -1.22 | -5.59 | 1.57 | inactive
TCAF2 | 2 | -0.477 | -0.388 | 3.5 | inactive
TCAF2 | 3 | -0.728 | -2.15 | 2.21 | inactive
MRPL40 | 1 | -0.131 | 2.04 | 5.47 | inactive
MRPL40 | 2 | 0.64 | 7.47 | 7.96 | inactive
MRPL40 | 3 | -0.666 | -1.72 | 2.24 | inactive
DHPS | 1 | 0.158 | 4.08 | 6.48 | inactive
DHPS | 2 | -0.0252 | 2.79 | 5.96 | inactive
DHPS | 3 | -1.26 | -5.89 | 2.07 | inactive
WDR48 | 1 | -0.821 | -2.81 | 3.24 | inactive
WDR48 | 2 | 0.158 | 4.08 | 6.41 | inactive
WDR48 | 3 | -1.17 | -5.28 | 1.36 | inactive
RBM48 | 1 | -0.288 | 0.941 | 2.69 | inactive
RBM48 | 2 | -0.989 | -3.99 | 2.78 | inactive
RBM48 | 3 | -0.0811 | 2.4 | 4.17 | inactive
IGSF3 | 1 | -1.14 | -5.04 | 2.94 | inactive
IGSF3 | 2 | 0.531 | 6.7 | 6.54 | inactive
IGSF3 | 3 | -0.58 | -1.11 | 3.09 | inactive
ATXN2 | 1 | 0.188 | 4.29 | 5.57 | inactive
ATXN2 | 2 | -0.258 | 1.15 | 5.12 | inactive
ATXN2 | 3 | 5.99 | 45.1 | 20.5 | active
PRR33 | 1 | 1.06 | 10.5 | 7.51 | inactive
PRR33 | 2 | 0.904 | 9.33 | 6.16 | inactive
PRR33 | 3 | -0.081 | 2.4 | 4.51 | inactive
TMEM250 | 1 | 1.28 | 11.9 | 6.71 | inactive
TMEM250 | 2 | -0.142 | 1.97 | 4.92 | inactive
TMEM250 | 3 | -1.14 | -5.02 | 1.43 | inactive
C11orf21 | 1 | 1.96 | 16.7 | 8.53 | inactive
C11orf21 | 2 | -0.312 | 0.772 | 4.15 | inactive
C11orf21 | 3 | -0.154 | 1.88 | 5.26 | inactive
GPR31 | 1 | 1.36 | 12.5 | 8.9 | inactive
GPR31 | 2 | 0.314 | 5.18 | 4.86 | inactive
GPR31 | 3 | 3.99 | 31 | 16.9 | inactive
TNFRSF1B | 1 | -0.895 | -3.33 | 4.08 | inactive
TNFRSF1B | 2 | 0.473 | 6.3 | 6.91 | inactive
TNFRSF1B | 3 | -1.24 | -5.74 | 2.13 | inactive
VSTM2A | 1 | 0.0378 | 3.23 | 4.75 | inactive
VSTM2A | 2 | 0.0203 | 3.11 | 4.2 | inactive
VSTM2A | 3 | 1.06 | 10.4 | 6.51 | inactive
DNASE2 | 1 | 0.332 | 5.3 | 5.92 | inactive
DNASE2 | 2 | 0.0789 | 3.52 | 6.22 | inactive
DNASE2 | 3 | 3.01 | 24.1 | 13.8 | inactive
NIPSNAP2 | 1 | 2.95 | 23.7 | 16.4 | inactive
NIPSNAP2 | 2 | 1.31 | 12.2 | 8.56 | inactive
NIPSNAP2 | 3 | 1.02 | 10.2 | 7.51 | inactive

Active calls (from the list above):
gene | siRNA no. | G2 robust z-score | G2 cells, % of GMNN control | raw share of cells in G2 (%) | Outcome
ATXN2 | 3 | 5.99 | 45.1 | 20.5 | active
